Measured values: PubChem BioAssay AID2685 (National Center for Advancing Translational Sciences (NCATS), 2010)
Hit rate of the full screen: of about 320,000 compounds, about 2,100 (0.66%) were called active. The shares of active, inactive and inconclusive entries below differ from those in the screen. The call rests on the fitted dose curve; in most records, active means well fitted inhibition curve with a large enough effect in the signal ratio, with a control signal flat (not every such curve was filed as active); inconclusive means small, poorly fitted or top-dose-only effect, or effect the other way, or a change in a side signal; inactive means flat fitted curve, though single readings scatter; the % refers to the signal ratio. Where the call is inconclusive, the potency comes from a doubtful curve fit.

Assay: qHTS Assay for Lipid Storage Modulators in Drosophila S3 Cells
Settings: BODIPY lipid droplet fluorescence, 18-24 h, cells fed with added oleic acid; lipid storage change, negative = inhibition: at 46.1 µM (top of the series) unless noted
In short: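 Drosophila S3 cells got compounds at several concentrations plus oleic acid (400 uM solution). Laser-scanning cytometry with 488 nm excitation read lipid droplets at 500-530 nm and cells at 575-640 nm. Percent activity was relative to 20 uM Triacsin C.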
On the % scale 0 is the no-effect control and ±100 the full control effect; potency means the concentration at half of the fitted maximal effect.

SMILES	lipid storage change, negative = inhibition	Potency
Cc1cc(C)nc(NC(=O)Nc2ccccc2C(F)(F)F)n1	inconclusive: -0.489%	–
C/C(=N\Nc1cc(C)nc(-c2ccccc2O)n1)c1ccccc1O	inconclusive: 6.28%	–
CC1Cn2c(nnc2-c2cccc(Cl)c2)S1 (centres undefined)	inconclusive: 8.17%	–
Cc1cc(NC(=O)c2nn(C)c(C)c2Br)no1	inconclusive: 13.2%	–
OC(CNC1CCCCCC1)COc1cccc2ccccc12 (centres undefined)	inconclusive: 1.94%	–
CN(C)CC(CCC(CN(C)C)C(=O)c1ccccc1)C(=O)c1ccccc1 (centres undefined)	–	inconclusive: 23.1 µM [cytotoxic, single point]
CCOc1ccc(NS(=O)(=O)c2ccc(NC(=O)c3ccccn3)cc2)cc1	inconclusive: -43.9%	–
COc1ccc(-n2c(SCC(=O)Nc3nccs3)nc3c(c2=O)SCC3)cc1	–	inconclusive: 5.8 µM [activator, partial curve]
Nc1nonc1-c1noc(CCCOc2ccc(Cl)cc2Cl)n1	inconclusive: 54.3%	–
O=C(COc1ccc2ccccc2c1)Nc1nc2ccccc2[nH]1	inconclusive: 270%	–
O=C(CSc1nnc(C2CC2)n1Cc1ccccc1)Nc1cccnc1Cl	inconclusive: 48.4%	–
O=C(CN1CCCC(O)C1)N1c2ccccc2Sc2ccc(C(F)(F)F)cc21 (centres undefined)	inconclusive: -11.6%	–
O=C(CN1C(=O)C2CCc3[nH]c4ccccc4c3C2C1=O)N1CCCC1 (centres undefined)	inconclusive: 15.6%	–
COc1ccc(NCC(=O)N/N=C/C(C)c2ccccc2)cc1 (centres undefined)	inconclusive: 18.7%	–
Cc1cc(=O)oc(C)c1C(=O)OCC(=O)c1ccccc1	–	inconclusive: 29.1 µM [activator, single point]
O=C(COC(=O)c1ccc2[nH]c3c(c2c1)CCCC3)Nc1ccc(Cl)cc1Cl	inconclusive: 12.6%	–
Cc1noc(C(=O)NCc2ccccc2)c1Cl	–	inconclusive: 0.103 µM [activator, partial curve, poor fit]
Cc1ccc(NC(=O)CC(C)CC2=NS(=O)(=O)c3ccccc3N2)cc1 (centres undefined)	inactive	–
CCOC(=O)CNC(=O)CSc1nc(-c2ccccc2)ns1	inconclusive: -31.4%	–
CC(=O)c1c(C(=O)O)[nH]c(C(=O)O)c1C	inconclusive: 30.5%	–
COc1cc(CNn2c(C)n[nH]c2=S)cc(Br)c1OCC(=O)NC(C)(C)C	–	inconclusive: 29.1 µM [falling, partial curve, poor fit]
COCCn1c(=S)[nH]c2sc3c(c2c1=O)CCC(C)C3 (centres undefined)	inconclusive: -27.3%	–
Cc1ccc(S(=O)(=O)N(C)S(=O)(=O)c2ccc(C)cc2)cc1	–	inconclusive: 3.66 µM [activator, partial curve]
COC(=O)c1ccc(C2C(C#N)=C(C)NC3=C2C(=O)CC(C)(C)C3)cc1 (centres undefined)	–	inconclusive: 25.9 µM [falling, single point]
Cc1ccc(/C=C/C(=O)Nc2ccncc2)o1	inconclusive: 10.6%	–
COc1ccc(C2CC(c3ccc(Cl)cc3)n3nc(N)nc3N2)cc1 (centres undefined)	inconclusive: -3.51% [at 9.22 µM]	–
COc1ccc(OCCC(=O)N2CCN(C)CC2)cc1	inconclusive: 31.6%	–

SMILES	lipid storage change, negative = inhibition	Potency
O=[N+]([O-])c1ccccc1CNCCCCCO	–	inconclusive: 29.1 µM [activator, single point]
CC(C)(C)c1ccc(C(=O)CCCSC2=C(C#N)C(c3ccco3)C3=C(CCCC3=O)N2)cc1 (centres undefined)	–	inconclusive: 1.16 µM [falling, partial curve, poor fit]
O=C(NCCC1=CCCCC1)C1CCCN(S(=O)(=O)c2cccnc2)C1 (centres undefined)	inconclusive: 19%	–
COCCCNC(=O)c1cn(Cc2c(F)cccc2Cl)nn1	inconclusive: 13.6%	–
COc1ccc(-c2cc(C(F)F)n3ncc(C(=O)n4ccnc4C)c3n2)cc1	inconclusive: -16.2%	–
O=C(N/N=C/c1ccc([N+](=O)[O-])cc1)c1cc(C2CC2)[nH]n1	inconclusive: 49.4%	–
Cc1cc(C)c(C(=O)COC(=O)CCn2c(C)csc2=O)cc1C	inconclusive	–
Nc1c(N(Cc2ccco2)C(=O)c2cccc(F)c2)c(=O)[nH]c(=O)n1Cc1ccccc1	inconclusive: -16.7%	–
O=C(c1ccco1)N1CCCN(Cc2nc(-c3cccs3)no2)CC1	inconclusive: 15.1%	–
COc1ccc(S(=O)(=O)CC(=O)Nc2ccccc2Cl)cc1	inconclusive: -20.3%	–
Oc1ccc(N=Nc2nccs2)c(O)c1	inconclusive: -3.15%	–
CNCc1c(OCc2ccccc2)ccc2ccccc12	inconclusive: -55.2%	–
COCc1[nH]nc2c1C1(C(=O)N(C)c3ccccc31)C(C#N)=C(N)O2 (centres undefined)	–	inconclusive: 6.51 µM [falling, single point]
O=[N+]([O-])c1ccc(O)c(Nc2c([N+](=O)[O-])ccc3nonc23)c1	inconclusive: 347%	–
CCC(=O)N1Cc2ccccc2-c2ccccc2C1=O	–	inconclusive: 29.1 µM [activator, single point]
O=S(=O)(c1ccccc1)c1cnn(-c2ccccc2)c1-c1ccc(F)cc1	inconclusive: 12.9%	–
Cc1nc(N2CCOCC2)nc(N2CCCC2)c1[N+](=O)[O-]	inconclusive: 12.6%	–
CCN(CC(O)CON=C1c2ccccc2-c2ccccc21)S(=O)(=O)c1ccc(C)cc1 (centres undefined)	–	inconclusive: 29.1 µM [falling, single point]
CCCCn1c(NC(=O)c2ccccc2)nc2ccccc21	inconclusive: -14.6%	–
O=C(NCC1CCCO1)c1cccc(Br)c1 (centres undefined)	–	inconclusive: 0.731 µM [falling, single point]
COc1ccc(N(CC(=O)Nc2ccc3c(c2)OCO3)S(=O)(=O)c2ccc(F)cc2)cc1	inconclusive: -44.7%	–
O=C1NC(Cc2ccccc2)c2nc3ccccc3c(=O)n2-c2ccc(Cl)cc21 (centres undefined)	inconclusive: -4.31%	–
Cc1ccc(NC(=O)Cc2nnc(SCC(=O)NC3=NCCS3)n2C)cc1	–	inconclusive: 32.6 µM [activator, partial curve, poor fit]
Cc1cccc(C)c1N1CCN(C(=O)N2CCCCC2)CC1	inconclusive: -19%	–
COc1ccc(-c2oc(=O)c3cc(OC)c(OC)cc3c2C(F)(F)F)cc1	inconclusive: 13%	–
CCCc1c(C(=O)N/N=C/c2cccc3ccccc23)nnn1-c1nonc1N	–	inconclusive: 29.1 µM [falling, single point]
COc1cc(OC)cc(C(=O)NC(=S)N2CCCCC2c2cccnc2)c1 (centres undefined)	–	inconclusive: 20.6 µM [falling, single point]

Six of the compounds above, as a markdown table:

| SMILES | lipid storage change, negative = inhibition | Potency |
| --- | --- | --- |
| C/C(=N\Nc1cc(C)nc(-c2ccccc2O)n1)c1ccccc1O | inconclusive: 6.28% | – |
| CN(C)CC(CCC(CN(C)C)C(=O)c1ccccc1)C(=O)c1ccccc1 (centres undefined) | – | inconclusive: 23.1 µM [cytotoxic, single point] |
| Cc1cc(C)c(C(=O)COC(=O)CCn2c(C)csc2=O)cc1C | inconclusive | – |
| CCC(=O)N1Cc2ccccc2-c2ccccc2C1=O | – | inconclusive: 29.1 µM [activator, single point] |
| CCCCn1c(NC(=O)c2ccccc2)nc2ccccc21 | inconclusive: -14.6% | – |
| O=C(NCC1CCCO1)c1cccc(Br)c1 (centres undefined) | – | inconclusive: 0.731 µM [falling, single point] |

(cont.)

SMILES	lipid storage change, negative = inhibition	Potency
NC(=O)c1ccc(-n2nnnc2SCC(=O)NC2CCCCC2)cc1	inconclusive: -83.8%	–
Nc1c(N2CCCCC2)c(=O)[nH]c(=O)n1-c1ccccc1	–	inconclusive: 6.51 µM [falling, full curve, poor fit]
CCOC(=O)C1CCN(C(=S)Nc2cccc(C)c2C)CC1	inconclusive: 0.495%	–
CCC(=NCc1ccccc1)c1c(C(F)(F)F)[nH]n(-c2nc3ccccc3s2)c1=O	inconclusive: 32%	–
COc1cc([N+](=O)[O-])ccc1N1C(=O)C2C3C=CC(C4CC34)C2C1=O (centres undefined)	inactive	–
CCC(C)(C(=O)NC1CCCC1)N(C(=O)CNC(C)=O)c1ccc(C)cc1 (centres undefined)	inconclusive: -11.8%	–
CC(C)(C)c1ccc(C(=O)Nc2ccc(C(=O)N3CCOCC3)cc2)cc1	inconclusive: -64.9%	–
C(=C\c1ccc(/C=C/c2ccccc2)nn1)/c1ccccc1	inconclusive: 35.2%	–
COC(=O)c1ccc(C(=O)OC)c(NS(C)(=O)=O)c1	inconclusive: 40.8%	–
COc1ccc(NC(=O)C2CCCN(S(=O)(=O)c3cccnc3)C2)cc1 (centres undefined)	inconclusive: -0.646%	–
Cc1cc(Cl)cc2c(N=Nc3ccccc3C(=O)O)c(O)[nH]c12	inconclusive: -49.3%	–
COC(=O)c1ccc(CNC(=O)C2CCC(=O)N(C3CCCCCC3)C2)cc1 (centres undefined)	inconclusive: 2.05%	–
CCc1ccc2nc(NC3=NCN(CCN4CCOCC4)CN3)nc(C)c2c1	inconclusive: 30.2%	–
Fc1ccccc1Nc1nc(Cl)nc(Cl)n1	inconclusive: 4.37%	–
Cc1nn(C)c(C(=O)N/N=C/c2cccnc2)c1Cl	inconclusive: 11.2%	–
COc1ccc(NC(=O)c2sc3nc(N4CCOCC4)c4c(c3c2N)CC(C(C)C)OC4)c(OC)c1 (centres undefined)	inconclusive: -42.6%	–
Cc1cc(C)c[n+](C(C)C(=O)c2ccc(-c3ccccc3)cc2)c1 (centres undefined)	–	inconclusive: 29.1 µM [falling, single point]
Cn1nc(C(=O)NCc2ccc(F)cc2)c2c1-c1ccccc1S(=O)(=O)C2	inconclusive: -11.8%	–
C[C@@H]1C=C(C(=O)N2CCN(Cc3ccccc3)CC2)O[C@H](OCc2ccc(CO)cc2)C1	inconclusive: -34.3%	–
O=C(CSc1nnnn1-c1ccc(Cl)cc1)N1CCc2ccccc2C1	inconclusive: 38.1%	–
COc1ccc(-n2c(CN3CCN(c4ccccc4OC)CC3)nc3ccc([N+](=O)[O-])cc3c2=O)c(OC)c1	inconclusive: -24.9%	–
CC(OC(=O)c1ccccc1N1C(=O)C2C3CCC(C3)C2C1=O)C(=O)c1ccccc1 (centres undefined)	inconclusive: -36%	–
Cc1n[nH]c(=O)c2c(NC(=O)COC(=O)c3cccc(OC(F)F)c3)oc(C)c12	inconclusive: 49.8%	–
CC(C)[C@H](NC(=O)c1ccco1)C(=O)NC12CC3CC(CC(C3)C1)C2	–	inconclusive: 29.1 µM [rising, single point]
COC(=O)c1[nH]c2ccc(C)cc2c1NC(=O)CCN1CCN(C2CCCCC2)CC1	–	inconclusive: 0.0046 µM [falling, full curve, poor fit]
